From patent US20210003577A1 (MAYO FOUNDATION FOR MEDICAL EDUCATION AND RESEARCH, published 2021)
These are yes or no findings as the source states them, for the method shown. Binding seen in cells or lysates may run through a third protein. Some binding calls cover weakened binding; strength is not graded here. For some assays here: Tags and fused reporters may be left off the sequences shown.

Key:
[1] = target: V5-tagged TET2 purified from sf9 insect cells (UniProt Q6N021); test: in vitro His-tag pulldown (Ni-NTA), His-CXXC5 with V5-TET2
[2] = target: endogenous TET2 in C4-2CON and C4-2ENZ-R cells (human), Q6N021; test: co-immunoprecipitation of endogenous proteins, C4-2CON and C4-2ENZ-R cells; conditions: remark: other sources report otherwise

Binder | binding [1] | binding [2]
His-tagged CXXC5 purified from E. coli (protein, UniProt Q7LFL8 1-322, looked up, not shown: small tags and cut ends) MSSLGGGSQDAGGSSSSSTNGSGGSGSSGPKAGAADKSAVVAAAAPASVADDTPPPERRNKSGIISEPLNKSLRRSRPLSHYSSFGSSGGSGGGSMMGGESADKATAAAAAASLLANGHDLAAAMAVDKSNPTSKHKSGAVASLLSKAERATELAAEGQLTLQQFAQSTEMLKRVVQEHLPLMSEAGAGLPDMEAVAGAEALNGQSDFPYLGAFPINPGLFIMTPAGVFLAESALHMAGLAEYPMQGELASAISSGKKKRKRCGMCAPCRRRINCEQCSSCRNRKTGHQICKFRKCEELKKKPSAALEKVMLPTGAAFRWFQ | binds | 
endogenous AR in C4-2CON and C4-2ENZ-R cells (receptor, human, UniProt P10275 1-920, looked up, also called androgen receptor; ARFL) MEVQLGLGRVYPRPPSKTYRGAFQNLFQSVREVIQNPGPRHPEAASAAPPGASLLLLQQQQQQQQQQQQQQQQQQQQQQQETSPRQQQQQQGEDGSPQAHRRGPTGYLVLDEEQQPSQPQSALECHPERGCVPEPGAAVAASKGLPQQLPAPPDEDDSAAPSTLSLLGPTFPGLSSCSADLKDILSEASTMQLLQQQQQEAVSEGSSSGRAREASGAPTSSKDNYLGGTSTISDNAKELCKAVSVSMGLGVEALEHLSPGEQLRGDCMYAPLLGVPPAVRPTPCAPLAECKGSLLDDSAGKSTEDTAEYSPFKGGYTKGLEGESLGCSGSAAAGSSGTLELPSTLSLYKSGALDEAAAYQSRDYYNFPLALAGPPPPPPPPHPHARIKLENPLDYGSAWAAAAAQCRYGDLASLHGAGAAGPGSGSPSAAASSSWHTLFTAEEGQLYGPCGGGGGGGGGGGGGGGGGGGGGGGEAGAVAPYGYTRPPQGLAGQESDFTAPDVWYPGGMVSRVPYPSPTCVKSEMGPWMDSYSGPYGDMRLETARDHVLPIDYYFPPQKTCLICGDEASGCHYGALTCGSCKVFFKRAAEGKQKYLCASRNDCTIDKFRRKNCPSCRLRKCYEAGMTLGARKLKKLGNLKLQEEGEASSTTSPTEETTQKLTVSHIEGYECQPIFLNVLEAIEPGVVCAGHDNNQPDSFAALLSSLNELGERQLVHVVKWAKALPGFRNLHVDDQMAVIQYSWMGLMVFAMGWRSFTNVNSRMLYFAPDLVFNEYRMHKSRMYSQCVRMRHLSQEFGWLQITPQEFLCMKALLLFSIIPVDGLKNQKFFDELRMNYIKELDRIIACKRKNPTSCSRRFYQLTKLLDSVQPIARELHQFTFDLLIKSHMVSVDFPEMMAEIISVQVPKILSGKVKPIYFHTQ |  | binds
